These are yes or no findings as the source states them, for the method shown. Binding seen in cells or lysates may run through a third protein. For part of these data: A result given as binding can be weak or reduced; the word gives no strength.
Key:
[1] = target: angiotensin II type 1 receptor-NanoLuc (human) (UniProt P30556); test: FRET or BRET; intermolecular NanoBRET in living HEK293 cells: GPCR-NanoLuc (donor) and Halo-Tag-β-arrestin labelled with Halo 618 ligand (acceptor); Control, ΔGRK clones or ΔQ-GRK with EV or one overexpressed GRK (2, 3, 5 or 6); baseline 3 min, then agonist for 5 min; some experiments with Gö6983, cmpd101, pindolol or Losartan
[2] = target: angiotensin II type 1 receptor-NanoLuc (human) (UniProt P30556); test: condition: only in ΔQ-GRK cells with the PKC inhibitor Gö6983 (500 nM); FRET or BRET; intermolecular NanoBRET (AT1R-NanoLuc, Halo-Tag-β-arrestin) in ΔQ-GRK cells + empty vector, pre-incubated with 500 nM PKC inhibitor Gö6983 at 37 °C for 1 h, then AngII
[3] = target: angiotensin II type 1 receptor-NanoLuc (human) (UniProt P30556); test: condition: only in ΔQ-GRK cells (knockout of GRK2, 3, 5 and 6); FRET or BRET; intermolecular NanoBRET (GPCR-NanoLuc, Halo-Tag-β-arrestin) in ΔQ-GRK cells + empty vector (knockout of GRK2, 3, 5 and 6), agonist-stimulated

Substance: Halo-Tag-β-arrestin2 lacking the finger loop region (dFLR) (from UniProt P32120)
- binding [1]: binds
- binding [2]: no binding
- binding [3]: no binding

Reference: publication PMC8795447
